Series [1] concerns ZmbHLH124 T-ORG (Zea mays (drought-tolerant line PH4CV allele)). Briefly: competition with a labelled probe. Conditions: excess unlabelled competitor vs labelled N1; LightShift Chemiluminescent EMSA Kit protocol (binding buffer, pH, temperature not stated); probes annealed in 10 mM Tris-HCl pH 7.5, 1 mM EDTA, 100 mM NaCl; recombinant protein; label: unlabelled.
For series [2] the test system is unchanged. Briefly: EMSA. Conditions: LightShift Chemiluminescent EMSA Kit protocol (binding buffer, pH, temperature not stated); probes annealed in 10 mM Tris-HCl pH 7.5, 1 mM EDTA, 100 mM NaCl; recombinant protein.

The exact form of at least one protein or probe is not confirmed. For some assays here: Negatives hold for the conditions tested. For some assays here: At least one verdict rests on a figure or table, not on a statement of the authors.

In the case of “TCGCTCTCACTTCAATACACCACGTCCACGTGAGCCTGTTCTGTTCCACTGACACACG (double strand) [pZmDREB2A P1 cold competitor]”, the binding result in series [1] is “binds”.

For “TCGCTCTCACTTCAATACACCACGTCCACGTGAGCCTGTTCTGTTCCACTGACACACG (double strand) [pZmDREB2A P1 probe (WT)]”, the binding result in series [2] is listed as “binds”. Regarding “TCGCTCTCACTTCAATACACCACGTCTTCGCCAGCCTGTTCTGTTCCACTGACACACG (double strand) [pZmDREB2A-mu1,2]”, the binding result in series [2] is “binds”. Same read-out and setting: the value for “TCGCTCTCACTTCAATACACGGAAACCACGTGAGCCTGTTCTGTTCCACTGACACACG (double strand) [pZmDREB2A-mu2,3]” was “binds”; that for “TCGCTCTCACTTCAATACACGGAAACTTGGCCAGCCTGTTCTGTTCCACTGACACACG (double strand) [pZmDREB2A-mu1,2,3]” was “no binding”.

For the origin of these results see paper PMC8486247.
